{
  "sequences": {"note": "The chains behind the UniProt entries cited, without tags or fusion partners. Where a name states a change or a piece, a line headed by the entry shows the natural chain unless it says otherwise.", "UniProt Q969F9": "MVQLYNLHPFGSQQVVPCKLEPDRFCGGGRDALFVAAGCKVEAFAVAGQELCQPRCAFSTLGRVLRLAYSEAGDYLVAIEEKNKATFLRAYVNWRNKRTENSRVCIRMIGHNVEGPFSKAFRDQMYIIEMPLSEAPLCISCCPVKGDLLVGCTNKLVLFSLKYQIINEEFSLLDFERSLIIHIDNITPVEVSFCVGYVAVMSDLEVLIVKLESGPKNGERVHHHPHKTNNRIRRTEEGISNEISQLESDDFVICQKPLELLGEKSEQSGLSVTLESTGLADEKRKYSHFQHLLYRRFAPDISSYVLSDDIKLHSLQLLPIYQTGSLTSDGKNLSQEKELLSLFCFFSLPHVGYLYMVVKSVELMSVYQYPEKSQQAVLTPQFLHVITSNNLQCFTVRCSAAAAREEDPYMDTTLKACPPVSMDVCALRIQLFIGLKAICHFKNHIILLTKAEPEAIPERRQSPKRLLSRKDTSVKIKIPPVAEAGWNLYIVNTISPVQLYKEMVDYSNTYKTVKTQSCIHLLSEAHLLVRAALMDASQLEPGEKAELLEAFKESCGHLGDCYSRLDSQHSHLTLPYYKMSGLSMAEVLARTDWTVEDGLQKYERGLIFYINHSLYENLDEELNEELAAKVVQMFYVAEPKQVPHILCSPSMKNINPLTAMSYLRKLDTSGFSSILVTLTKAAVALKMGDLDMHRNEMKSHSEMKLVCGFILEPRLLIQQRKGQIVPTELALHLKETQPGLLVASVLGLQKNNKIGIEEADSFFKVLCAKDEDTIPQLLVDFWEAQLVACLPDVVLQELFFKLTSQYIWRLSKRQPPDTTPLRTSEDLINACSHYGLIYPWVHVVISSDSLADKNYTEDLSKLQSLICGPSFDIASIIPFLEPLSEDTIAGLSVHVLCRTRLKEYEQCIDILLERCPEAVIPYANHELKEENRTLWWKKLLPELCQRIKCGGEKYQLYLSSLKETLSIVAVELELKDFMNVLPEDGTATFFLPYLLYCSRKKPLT", "UniProt Q9NQG7": "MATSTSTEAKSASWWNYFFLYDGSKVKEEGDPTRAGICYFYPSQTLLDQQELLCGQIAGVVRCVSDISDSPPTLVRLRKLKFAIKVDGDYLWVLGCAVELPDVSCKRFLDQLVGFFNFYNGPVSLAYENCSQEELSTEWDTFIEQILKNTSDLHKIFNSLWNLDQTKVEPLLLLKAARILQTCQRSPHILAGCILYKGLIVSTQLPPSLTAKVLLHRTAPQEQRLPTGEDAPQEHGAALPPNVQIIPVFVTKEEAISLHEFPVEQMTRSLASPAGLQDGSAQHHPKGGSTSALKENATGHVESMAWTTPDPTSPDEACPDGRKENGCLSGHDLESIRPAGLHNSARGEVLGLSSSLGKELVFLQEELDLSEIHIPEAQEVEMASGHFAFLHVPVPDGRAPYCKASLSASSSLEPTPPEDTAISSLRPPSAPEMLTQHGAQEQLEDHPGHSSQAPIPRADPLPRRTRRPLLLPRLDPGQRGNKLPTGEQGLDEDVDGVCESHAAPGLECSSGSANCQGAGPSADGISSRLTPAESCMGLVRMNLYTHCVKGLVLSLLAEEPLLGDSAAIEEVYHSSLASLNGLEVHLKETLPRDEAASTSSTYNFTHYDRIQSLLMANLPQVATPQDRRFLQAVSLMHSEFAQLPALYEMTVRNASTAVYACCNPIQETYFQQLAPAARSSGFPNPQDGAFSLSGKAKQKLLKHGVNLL", "UniProt Q8IWL3": "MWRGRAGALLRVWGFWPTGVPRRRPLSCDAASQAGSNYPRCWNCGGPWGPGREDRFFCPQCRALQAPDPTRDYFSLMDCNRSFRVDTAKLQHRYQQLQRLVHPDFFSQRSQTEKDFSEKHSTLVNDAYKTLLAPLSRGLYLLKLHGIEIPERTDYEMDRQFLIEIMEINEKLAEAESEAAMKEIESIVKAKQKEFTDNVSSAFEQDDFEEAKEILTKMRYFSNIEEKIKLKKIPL", "UniProt Q9BTY7": "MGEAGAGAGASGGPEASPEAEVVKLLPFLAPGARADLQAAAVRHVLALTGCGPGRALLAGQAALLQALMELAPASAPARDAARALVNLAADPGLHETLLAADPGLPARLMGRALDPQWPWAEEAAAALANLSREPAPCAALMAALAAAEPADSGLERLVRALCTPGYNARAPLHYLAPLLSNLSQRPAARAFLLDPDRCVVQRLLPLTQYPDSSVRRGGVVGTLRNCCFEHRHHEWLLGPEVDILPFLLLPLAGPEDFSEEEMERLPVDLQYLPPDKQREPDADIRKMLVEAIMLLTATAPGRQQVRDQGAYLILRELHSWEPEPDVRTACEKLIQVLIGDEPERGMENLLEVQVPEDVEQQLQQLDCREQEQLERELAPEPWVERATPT", "UniProt Q9NQE9": "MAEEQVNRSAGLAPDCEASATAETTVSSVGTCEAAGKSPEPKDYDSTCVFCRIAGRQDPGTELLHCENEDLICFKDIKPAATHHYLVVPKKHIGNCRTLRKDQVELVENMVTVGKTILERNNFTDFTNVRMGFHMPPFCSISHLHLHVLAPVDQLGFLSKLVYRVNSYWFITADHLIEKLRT", "UniProt O75506": "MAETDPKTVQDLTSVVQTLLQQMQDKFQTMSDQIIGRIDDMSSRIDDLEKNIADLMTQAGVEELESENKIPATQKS", "UniProt Q5SSJ5": "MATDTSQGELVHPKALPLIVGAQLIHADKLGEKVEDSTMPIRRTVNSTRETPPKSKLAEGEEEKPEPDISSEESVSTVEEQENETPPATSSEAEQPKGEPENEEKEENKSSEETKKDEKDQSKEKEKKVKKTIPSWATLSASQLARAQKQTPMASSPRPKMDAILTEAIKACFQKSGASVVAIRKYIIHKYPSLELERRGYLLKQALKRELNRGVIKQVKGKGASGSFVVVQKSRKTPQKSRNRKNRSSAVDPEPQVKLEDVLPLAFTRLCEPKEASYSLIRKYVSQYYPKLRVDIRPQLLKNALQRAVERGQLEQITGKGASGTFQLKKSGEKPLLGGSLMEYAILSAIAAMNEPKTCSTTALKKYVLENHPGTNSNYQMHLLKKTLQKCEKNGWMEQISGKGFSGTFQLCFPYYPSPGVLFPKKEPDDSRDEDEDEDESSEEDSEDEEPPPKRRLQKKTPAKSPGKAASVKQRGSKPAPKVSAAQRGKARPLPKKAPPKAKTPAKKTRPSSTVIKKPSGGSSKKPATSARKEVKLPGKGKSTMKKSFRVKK", "UniProt Q9NWY4": "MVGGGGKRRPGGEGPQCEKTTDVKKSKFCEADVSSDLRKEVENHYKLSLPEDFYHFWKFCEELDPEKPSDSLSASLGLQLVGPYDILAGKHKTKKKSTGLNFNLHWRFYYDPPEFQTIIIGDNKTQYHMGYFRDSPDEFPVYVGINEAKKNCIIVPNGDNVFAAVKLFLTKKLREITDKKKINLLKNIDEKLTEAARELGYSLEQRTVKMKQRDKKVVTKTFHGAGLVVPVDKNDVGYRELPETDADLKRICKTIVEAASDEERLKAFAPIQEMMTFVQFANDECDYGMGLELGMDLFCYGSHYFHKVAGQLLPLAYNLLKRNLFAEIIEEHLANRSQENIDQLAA", "UniProt P22626": "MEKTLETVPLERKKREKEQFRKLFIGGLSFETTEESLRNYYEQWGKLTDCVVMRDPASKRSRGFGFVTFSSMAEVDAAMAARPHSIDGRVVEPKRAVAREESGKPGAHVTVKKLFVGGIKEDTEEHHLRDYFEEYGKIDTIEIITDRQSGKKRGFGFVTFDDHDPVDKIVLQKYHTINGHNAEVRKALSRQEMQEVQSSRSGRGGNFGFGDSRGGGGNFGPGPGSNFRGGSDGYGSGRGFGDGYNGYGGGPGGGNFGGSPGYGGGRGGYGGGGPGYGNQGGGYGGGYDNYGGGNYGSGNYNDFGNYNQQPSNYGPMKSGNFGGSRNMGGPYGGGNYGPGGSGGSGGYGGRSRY", "UniProt P17482": "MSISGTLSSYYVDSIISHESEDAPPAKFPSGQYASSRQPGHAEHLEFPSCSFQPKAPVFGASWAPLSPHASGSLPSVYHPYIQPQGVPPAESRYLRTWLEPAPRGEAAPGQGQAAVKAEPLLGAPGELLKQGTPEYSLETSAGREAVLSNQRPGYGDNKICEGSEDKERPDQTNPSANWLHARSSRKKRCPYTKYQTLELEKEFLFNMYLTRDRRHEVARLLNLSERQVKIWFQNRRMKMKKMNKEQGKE", "UniProt P17483": "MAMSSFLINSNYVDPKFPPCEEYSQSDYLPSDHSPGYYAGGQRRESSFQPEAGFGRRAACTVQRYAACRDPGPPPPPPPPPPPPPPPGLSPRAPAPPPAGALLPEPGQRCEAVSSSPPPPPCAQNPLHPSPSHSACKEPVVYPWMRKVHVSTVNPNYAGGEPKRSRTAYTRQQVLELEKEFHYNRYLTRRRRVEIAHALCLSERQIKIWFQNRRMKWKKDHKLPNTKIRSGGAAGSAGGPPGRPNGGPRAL", "UniProt P54198, whole entry, looked up": "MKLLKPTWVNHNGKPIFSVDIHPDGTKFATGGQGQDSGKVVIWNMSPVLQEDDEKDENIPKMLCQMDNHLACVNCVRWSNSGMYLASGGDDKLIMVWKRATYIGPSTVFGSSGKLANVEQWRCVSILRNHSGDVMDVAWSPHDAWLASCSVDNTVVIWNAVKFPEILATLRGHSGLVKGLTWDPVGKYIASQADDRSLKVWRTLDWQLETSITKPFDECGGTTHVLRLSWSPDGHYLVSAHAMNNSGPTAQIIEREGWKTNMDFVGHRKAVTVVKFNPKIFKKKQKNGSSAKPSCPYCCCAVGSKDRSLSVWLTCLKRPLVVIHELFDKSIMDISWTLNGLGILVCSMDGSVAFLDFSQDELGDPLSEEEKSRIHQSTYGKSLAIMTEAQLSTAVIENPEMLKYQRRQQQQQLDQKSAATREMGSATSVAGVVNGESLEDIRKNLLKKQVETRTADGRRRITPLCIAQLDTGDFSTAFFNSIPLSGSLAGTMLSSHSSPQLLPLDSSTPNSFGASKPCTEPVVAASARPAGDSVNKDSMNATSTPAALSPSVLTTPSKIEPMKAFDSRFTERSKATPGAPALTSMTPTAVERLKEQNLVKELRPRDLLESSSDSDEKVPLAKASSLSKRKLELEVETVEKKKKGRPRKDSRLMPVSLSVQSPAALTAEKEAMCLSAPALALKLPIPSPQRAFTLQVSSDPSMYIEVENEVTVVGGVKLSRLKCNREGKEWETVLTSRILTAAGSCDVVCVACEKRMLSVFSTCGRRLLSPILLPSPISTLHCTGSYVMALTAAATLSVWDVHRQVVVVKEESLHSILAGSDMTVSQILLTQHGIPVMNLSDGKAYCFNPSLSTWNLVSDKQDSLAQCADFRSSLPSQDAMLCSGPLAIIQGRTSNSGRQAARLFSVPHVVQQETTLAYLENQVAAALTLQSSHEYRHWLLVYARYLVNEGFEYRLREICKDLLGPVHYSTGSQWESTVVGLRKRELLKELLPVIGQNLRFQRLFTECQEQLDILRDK", "UniProt Q03933": "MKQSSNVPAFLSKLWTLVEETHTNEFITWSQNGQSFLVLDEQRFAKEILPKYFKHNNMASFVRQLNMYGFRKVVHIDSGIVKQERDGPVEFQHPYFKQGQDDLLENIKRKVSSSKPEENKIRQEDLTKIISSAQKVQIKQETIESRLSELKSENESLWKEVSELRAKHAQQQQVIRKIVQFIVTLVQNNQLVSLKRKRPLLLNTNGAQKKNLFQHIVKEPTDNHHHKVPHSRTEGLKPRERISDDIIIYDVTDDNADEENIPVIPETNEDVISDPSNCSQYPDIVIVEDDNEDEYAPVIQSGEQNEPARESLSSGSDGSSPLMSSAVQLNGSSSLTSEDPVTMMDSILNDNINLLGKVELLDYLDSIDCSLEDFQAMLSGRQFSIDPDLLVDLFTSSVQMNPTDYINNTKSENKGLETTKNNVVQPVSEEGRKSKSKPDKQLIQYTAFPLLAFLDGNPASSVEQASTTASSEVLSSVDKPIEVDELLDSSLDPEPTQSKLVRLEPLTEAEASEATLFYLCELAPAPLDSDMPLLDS", "UniProt P52597": "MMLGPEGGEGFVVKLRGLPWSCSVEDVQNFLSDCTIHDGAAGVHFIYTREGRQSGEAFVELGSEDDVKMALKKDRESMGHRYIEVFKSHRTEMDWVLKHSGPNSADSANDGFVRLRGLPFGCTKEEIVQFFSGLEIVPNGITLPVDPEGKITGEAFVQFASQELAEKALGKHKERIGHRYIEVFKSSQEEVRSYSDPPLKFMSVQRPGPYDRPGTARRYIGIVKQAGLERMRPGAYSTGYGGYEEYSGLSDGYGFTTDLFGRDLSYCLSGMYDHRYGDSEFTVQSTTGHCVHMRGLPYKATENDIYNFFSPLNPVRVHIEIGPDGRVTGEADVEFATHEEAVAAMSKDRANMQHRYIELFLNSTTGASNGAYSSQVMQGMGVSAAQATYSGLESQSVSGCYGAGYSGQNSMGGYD"},
  "source": "the supplement of paper PMC10849652",
  "note": "This is one part of the list.",
  "data": [
    {"compound": "CNC(=O)C1=CC=CC=C1NC2=NC(=NC=C2Cl)NC3=C(C=C(C=C3)N4CCOCC4)OC", "assay": "log2 fold change, soluble protein after heating vs DMSO (PISA); higher = thermal stabilisation; K562 lysate, 10 uM; active = over 0.2 and 3.5 SD of the protein, either way, in both replicates (recomputed)", "how_it_was_run": "(§1)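 Following dounce homogenisation of K562 pellets in PBS pH 7.4 with 1 mM MgCl2, crude extract at 1 mg/mL protein was incubated for 30 min with 10 μM compound. Aliquots were then heated for 3 min over 48°C-58°C and pooled, NP-40 was added to 0.5% at 4°C, and soluble protein was recovered as the supernatant at 21,000xg for 90 min. Channel-sum-equalised TMTpro 16plex LC-MS/MS quantified this protein. Each value, from duplicates, is a log-two fold change in thermal stability relative to solvent controls.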", "values": [
      {"target": "HPS3 (UniProt Q969F9)", "log2 fold change": "inactive: 0.007"},
      {"target": "HPS4 isoform 4 (UniProt Q9NQG7)", "log2 fold change": "inactive: -0.045"},
      {"target": "HSCB (UniProt Q8IWL3)", "log2 fold change": "inactive: 0.006"},
      {"target": "HSP90AA1 isoform 2 (UniProt P07900)", "log2 fold change": "inactive: -0.012"},
      {"target": "HGH1 (UniProt Q9BTY7)", "log2 fold change": "inactive: 0.014"}
    ]},
    {"compound": "CNC(=O)c1ccc(Nc2ncc(C(F)(F)F)c(NCc3nccnc3N(C)S(C)(=O)=O)n2)cc1 [defactinib]", "assay": "log2 fold change, soluble protein after heating vs DMSO (PISA); higher = thermal stabilisation; K562 lysate, 10 uM; active = over 0.2 and 3.5 SD of the protein, either way, in both replicates (recomputed)", "how_it_was_run": "as §1", "values": [
      {"target": "HOOK3 (UniProt Q86VS8)", "log2 fold change": "inactive: 0"},
      {"target": "HINT3 (UniProt Q9NQE9)", "log2 fold change": "inactive: 0.021"},
      {"target": "HPS5 (UniProt Q9UPZ3)", "log2 fold change": "inactive: -0.083"},
      {"target": "HMGXB4 (UniProt Q9UGU5)", "log2 fold change": "inactive: -0.009"},
      {"target": "HECW2 (UniProt Q9P2P5)", "log2 fold change": "inactive: -0.087"},
      {"target": "HSBP1 (UniProt O75506)", "log2 fold change": "inactive: 0.079"},
      {"target": "HNRNPR isoform 2 (UniProt O43390)", "log2 fold change": "inactive: -0.013"},
      {"target": "HSPA1A (UniProt P0DMV8)", "log2 fold change": "inactive: 0.008"},
      {"target": "HSD17B7 (UniProt P56937)", "log2 fold change": "inactive: 0.028"},
      {"target": "HP1BP3 (UniProt Q5SSJ5)", "log2 fold change": "inactive: -0.025"},
      {"target": "HPF1 (UniProt Q9NWY4)", "log2 fold change": "inactive: 0.021"},
      {"target": "HECTD4 (UniProt J3KPF0)", "log2 fold change": "inactive: 0.012"},
      {"target": "HNRNPA2B1 (UniProt P22626)", "log2 fold change": "inactive: -0.016"},
      {"target": "HERPUD1 (UniProt Q15011)", "log2 fold change": "inactive: -0.07"},
      {"target": "HELZ2 (UniProt Q9BYK8)", "log2 fold change": "inactive: 0.064"},
      {"target": "HOXB9 (UniProt P17482)", "log2 fold change": "inactive: 0.072"},
      {"target": "HPS1 (UniProt Q92902)", "log2 fold change": "inactive: 0.087"},
      {"target": "HOXB4 (UniProt P17483)", "log2 fold change": "inactive: -0.032"},
      {"target": "HIRA (UniProt P54198)", "log2 fold change": "inactive: 0.02"},
      {"target": "HJURP (UniProt Q8NCD3)", "log2 fold change": "inactive: -0.018"},
      {"target": "HEXD isoform 2 (UniProt Q8WVB3)", "log2 fold change": "inactive: -0.028"},
      {"target": "HK1 isoform 2 (UniProt P19367)", "log2 fold change": "inactive: 0.001"},
      {"target": "HEATR6 (UniProt Q6AI08)", "log2 fold change": "inactive: 0.011"},
      {"target": "HSF2 (UniProt Q03933)", "log2 fold change": "inactive: 0.02"},
      {"target": "HNRNPM (UniProt M0QZM1)", "log2 fold change": "inactive: 0.073"},
      {"target": "HNRNPF (UniProt P52597)", "log2 fold change": "inactive: -0.013"},
      {"target": "HPS3 (UniProt Q969F9)", "log2 fold change": "inactive: -0.055"},
      {"target": "HNRNPM (UniProt M0R019)", "log2 fold change": "inactive: -0.112"},
      {"target": "HPS4 isoform 4 (UniProt Q9NQG7)", "log2 fold change": "inactive: 0.074"},
      {"target": "HSCB (UniProt Q8IWL3)", "log2 fold change": "inactive: 0.126"},
      {"target": "HMCN1 (UniProt Q96RW7)", "log2 fold change": "inactive: -0.023"},
      {"target": "HSP90AA1 isoform 2 (UniProt P07900)", "log2 fold change": "inactive: -0.002"},
      {"target": "HGH1 (UniProt Q9BTY7)", "log2 fold change": "inactive: 0.022"}
    ]},
    {"compound": "CNc1nc(-c2ccc3c(N)n[nH]c3c2)cc(N2C[C@@H](C(=O)NC3CCCCC3)CC[C@H]2C)n1", "assay": "log2 fold change, soluble protein after heating vs DMSO (PISA); higher = thermal stabilisation; K562 lysate, 10 uM; active = over 0.2 and 3.5 SD of the protein, either way, in both replicates (recomputed)", "how_it_was_run": "as §1", "values": [
      {"target": "HOOK3 (UniProt Q86VS8)", "log2 fold change": "inactive: 0.019"},
      {"target": "HINT3 (UniProt Q9NQE9)", "log2 fold change": "inactive: 0.092"},
      {"target": "HPS5 (UniProt Q9UPZ3)", "log2 fold change": "inactive: -0.044"},
      {"target": "HECW2 (UniProt Q9P2P5)", "log2 fold change": "inactive: -0.099"},
      {"target": "HNMT (UniProt P50135)", "log2 fold change": "inactive: 0.033"},
      {"target": "HSBP1 (UniProt O75506)", "log2 fold change": "inactive: 0.02"},
      {"target": "HNRNPR isoform 2 (UniProt O43390)", "log2 fold change": "inactive: -0.012"},
      {"target": "HSPA1A (UniProt P0DMV8)", "log2 fold change": "inactive: -0.031"},
      {"target": "HSD17B7 (UniProt P56937)", "log2 fold change": "inactive: -0.022"},
      {"target": "HP1BP3 (UniProt Q5SSJ5)", "log2 fold change": "inactive: -0.017"},
      {"target": "HPF1 (UniProt Q9NWY4)", "log2 fold change": "inactive: -0.033"},
      {"target": "HECTD4 (UniProt J3KPF0)", "log2 fold change": "inactive: -0.017"},
      {"target": "HNRNPA2B1 (UniProt P22626)", "log2 fold change": "inactive: -0.011"},
      {"target": "HOXB9 (UniProt P17482)", "log2 fold change": "inactive: 0.021"},
      {"target": "HPS1 (UniProt Q92902)", "log2 fold change": "inactive: 0.002"},
      {"target": "HOXB4 (UniProt P17483)", "log2 fold change": "inactive: -0.158"},
      {"target": "HIRA (UniProt P54198)", "log2 fold change": "inactive: 0.057"},
      {"target": "HJURP (UniProt Q8NCD3)", "log2 fold change": "inactive: 0.029"},
      {"target": "HK1 isoform 2 (UniProt P19367)", "log2 fold change": "inactive: -0.011"},
      {"target": "HEATR6 (UniProt Q6AI08)", "log2 fold change": "inactive: 0.008"},
      {"target": "HSF2 (UniProt Q03933)", "log2 fold change": "inactive: -0.035"},
      {"target": "HNRNPM (UniProt M0QZM1)", "log2 fold change": "inactive: 0.128"},
      {"target": "HNRNPF (UniProt P52597)", "log2 fold change": "inactive: -0.056"},
      {"target": "HPS3 (UniProt Q969F9)", "log2 fold change": "inactive: 0.095"},
      {"target": "HPS4 isoform 4 (UniProt Q9NQG7)", "log2 fold change": "inactive: 0.198"},
      {"target": "HSCB (UniProt Q8IWL3)", "log2 fold change": "inactive: 0.038"},
      {"target": "HSP90AA1 isoform 2 (UniProt P07900)", "log2 fold change": "inactive: 0.005"},
      {"target": "HGH1 (UniProt Q9BTY7)", "log2 fold change": "inactive: -0.041"}
    ]},
    {"compound": "COC(=O)N[C@@H](C)CNc1nccc(-c2cn(C(C)C)nc2-c2cc(Cl)cc(NS(C)(=O)=O)c2F)n1 [encorafenib]", "assay": "log2 fold change, soluble protein after heating vs DMSO (PISA); higher = thermal stabilisation; K562 lysate, 10 uM; active = over 0.2 and 3.5 SD of the protein, either way, in both replicates (recomputed)", "how_it_was_run": "as §1", "values": [
      {"target": "HOOK3 (UniProt Q86VS8)", "log2 fold change": "inactive: 0.054"},
      {"target": "HINT3 (UniProt Q9NQE9)", "log2 fold change": "inactive: 0.023"},
      {"target": "HMGXB4 (UniProt Q9UGU5)", "log2 fold change": "inactive: -0.292"},
      {"target": "HECW2 (UniProt Q9P2P5)", "log2 fold change": "inactive: 0"},
      {"target": "HNMT (UniProt P50135)", "log2 fold change": "inactive: 0.073"},
      {"target": "HSBP1 (UniProt O75506)", "log2 fold change": "inactive: -0.004"},
      {"target": "HNRNPR isoform 2 (UniProt O43390)", "log2 fold change": "inactive: -0.025"},
      {"target": "HSPA1A (UniProt P0DMV8)", "log2 fold change": "inactive: -0.01"},
      {"target": "HSD17B7 (UniProt P56937)", "log2 fold change": "inactive: 0.158"},
      {"target": "HP1BP3 (UniProt Q5SSJ5)", "log2 fold change": "inactive: 0.008"},
      {"target": "HPF1 (UniProt Q9NWY4)", "log2 fold change": "inactive: -0.027"},
      {"target": "HECTD4 (UniProt J3KPF0)", "log2 fold change": "inactive: -0.072"},
      {"target": "HNRNPA2B1 (UniProt P22626)", "log2 fold change": "inactive: 0.002"},
      {"target": "HERPUD1 (UniProt Q15011)", "log2 fold change": "inactive: -0.077"},
      {"target": "HOXB9 (UniProt P17482)", "log2 fold change": "inactive: 0.075"},
      {"target": "HPS1 (UniProt Q92902)", "log2 fold change": "inactive: 0.118"},
      {"target": "HOXB4 (UniProt P17483)", "log2 fold change": "inactive: 0.032"},
      {"target": "HIRA (UniProt P54198)", "log2 fold change": "inactive: 0.051"},
      {"target": "HEXD isoform 2 (UniProt Q8WVB3)", "log2 fold change": "inactive: -0.065"},
      {"target": "HK1 isoform 2 (UniProt P19367)", "log2 fold change": "inactive: 0.003"},
      {"target": "HEATR6 (UniProt Q6AI08)", "log2 fold change": "inactive: 0.039"},
      {"target": "HSF2 (UniProt Q03933)", "log2 fold change": "inactive: 0.062"},
      {"target": "HNRNPM (UniProt M0QZM1)", "log2 fold change": "inactive: 0.006"},
      {"target": "HNRNPF (UniProt P52597)", "log2 fold change": "inactive: 0.035"},
      {"target": "HPS3 (UniProt Q969F9)", "log2 fold change": "inactive: -0.145"},
      {"target": "HPS4 isoform 4 (UniProt Q9NQG7)", "log2 fold change": "inactive: -0.042"},
      {"target": "HSCB (UniProt Q8IWL3)", "log2 fold change": "inactive: -0.1"},
      {"target": "HSP90AA1 isoform 2 (UniProt P07900)", "log2 fold change": "inactive: -0.032"},
      {"target": "HGH1 (UniProt Q9BTY7)", "log2 fold change": "inactive: 0.004"}
    ]}
  ]
}
